Laboratory results from patent EP0651783B1, “ALKALINE PHOSPHATASE ENZYME HAVING IMPROVED SPECIFIC ACTIVITY FOR USE IN INDICATOR REAGENTS” (ABBOTT LABORATORIES, priority 1992, dated 1994).
At least one structure is not confirmed: it was looked up by name or label, or the drawing left a doubt.

Sequences of proteins named here, by UniProt entry; tags and fusion partners are left off. Residues count along the entry.
UniProt P00634, 22-471: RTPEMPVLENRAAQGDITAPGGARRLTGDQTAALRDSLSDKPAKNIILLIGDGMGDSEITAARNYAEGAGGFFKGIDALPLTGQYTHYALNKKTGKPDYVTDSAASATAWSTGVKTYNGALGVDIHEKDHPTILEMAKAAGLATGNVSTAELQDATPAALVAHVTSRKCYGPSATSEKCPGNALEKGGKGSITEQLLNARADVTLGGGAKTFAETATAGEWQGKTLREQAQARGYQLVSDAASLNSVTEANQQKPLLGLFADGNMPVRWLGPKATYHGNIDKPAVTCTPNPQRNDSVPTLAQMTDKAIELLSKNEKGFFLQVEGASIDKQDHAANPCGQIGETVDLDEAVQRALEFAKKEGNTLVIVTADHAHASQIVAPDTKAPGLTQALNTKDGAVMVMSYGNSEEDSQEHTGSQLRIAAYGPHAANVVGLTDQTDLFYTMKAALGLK
UniProt P00634, 22-471 S437G/V399A: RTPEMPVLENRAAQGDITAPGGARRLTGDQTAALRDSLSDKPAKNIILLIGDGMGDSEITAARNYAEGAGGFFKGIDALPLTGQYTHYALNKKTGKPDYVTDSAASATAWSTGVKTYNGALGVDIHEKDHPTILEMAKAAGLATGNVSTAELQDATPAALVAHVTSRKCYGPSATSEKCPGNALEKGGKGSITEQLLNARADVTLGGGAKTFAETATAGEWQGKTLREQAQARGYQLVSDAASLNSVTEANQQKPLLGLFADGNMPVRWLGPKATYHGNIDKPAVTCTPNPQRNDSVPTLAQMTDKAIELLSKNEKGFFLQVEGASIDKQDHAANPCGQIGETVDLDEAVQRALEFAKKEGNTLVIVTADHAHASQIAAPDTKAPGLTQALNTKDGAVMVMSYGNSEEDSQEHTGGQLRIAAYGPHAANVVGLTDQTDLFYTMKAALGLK
UniProt P00634, 22-471 T122V: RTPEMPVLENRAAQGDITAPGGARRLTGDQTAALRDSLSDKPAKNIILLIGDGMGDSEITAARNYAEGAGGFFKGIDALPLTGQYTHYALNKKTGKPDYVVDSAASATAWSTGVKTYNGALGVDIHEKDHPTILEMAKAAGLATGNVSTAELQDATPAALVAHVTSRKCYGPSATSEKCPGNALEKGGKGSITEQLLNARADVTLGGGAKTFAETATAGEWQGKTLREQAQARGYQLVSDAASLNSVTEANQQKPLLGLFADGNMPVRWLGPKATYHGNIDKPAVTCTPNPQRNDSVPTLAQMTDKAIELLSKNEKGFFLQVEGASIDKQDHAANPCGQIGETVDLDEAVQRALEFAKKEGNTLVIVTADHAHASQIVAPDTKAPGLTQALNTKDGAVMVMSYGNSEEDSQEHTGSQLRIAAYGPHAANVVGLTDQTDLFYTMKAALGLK
UniProt P00634, 22-471 T122I: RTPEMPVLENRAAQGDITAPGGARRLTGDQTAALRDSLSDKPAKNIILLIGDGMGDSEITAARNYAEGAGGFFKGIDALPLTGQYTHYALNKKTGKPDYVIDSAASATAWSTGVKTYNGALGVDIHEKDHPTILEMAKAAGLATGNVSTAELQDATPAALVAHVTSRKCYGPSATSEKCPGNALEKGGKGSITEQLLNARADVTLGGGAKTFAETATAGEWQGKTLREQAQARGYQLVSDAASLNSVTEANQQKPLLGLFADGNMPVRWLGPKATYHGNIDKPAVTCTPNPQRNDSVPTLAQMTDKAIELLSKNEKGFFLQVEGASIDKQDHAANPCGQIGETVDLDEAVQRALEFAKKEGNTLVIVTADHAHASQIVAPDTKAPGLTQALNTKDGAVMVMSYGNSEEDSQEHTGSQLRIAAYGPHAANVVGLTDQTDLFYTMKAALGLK
UniProt P00634, 22-471 K350R: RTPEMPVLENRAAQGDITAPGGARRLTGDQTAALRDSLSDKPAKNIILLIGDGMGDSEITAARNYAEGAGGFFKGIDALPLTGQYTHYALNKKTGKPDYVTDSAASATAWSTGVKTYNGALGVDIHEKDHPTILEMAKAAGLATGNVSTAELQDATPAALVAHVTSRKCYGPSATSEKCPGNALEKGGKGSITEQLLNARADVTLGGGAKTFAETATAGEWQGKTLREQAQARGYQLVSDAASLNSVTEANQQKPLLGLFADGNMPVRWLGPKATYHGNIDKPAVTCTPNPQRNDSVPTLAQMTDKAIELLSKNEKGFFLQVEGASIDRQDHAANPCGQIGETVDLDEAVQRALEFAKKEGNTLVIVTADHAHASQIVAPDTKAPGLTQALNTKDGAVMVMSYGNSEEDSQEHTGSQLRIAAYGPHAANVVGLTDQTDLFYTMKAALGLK
UniProt P00634, 22-471 V121A: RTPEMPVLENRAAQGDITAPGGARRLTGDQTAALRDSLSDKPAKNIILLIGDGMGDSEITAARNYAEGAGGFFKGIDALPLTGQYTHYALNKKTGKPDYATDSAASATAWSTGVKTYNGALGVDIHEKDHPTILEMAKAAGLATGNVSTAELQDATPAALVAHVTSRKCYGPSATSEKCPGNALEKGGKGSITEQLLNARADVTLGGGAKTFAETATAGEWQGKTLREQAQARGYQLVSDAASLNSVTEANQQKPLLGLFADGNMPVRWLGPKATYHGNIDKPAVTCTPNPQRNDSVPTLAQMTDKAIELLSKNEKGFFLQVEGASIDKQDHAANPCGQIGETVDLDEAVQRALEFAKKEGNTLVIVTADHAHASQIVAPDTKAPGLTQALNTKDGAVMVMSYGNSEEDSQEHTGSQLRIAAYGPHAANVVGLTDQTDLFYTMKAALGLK
UniProt P00634, 22-471 A125D: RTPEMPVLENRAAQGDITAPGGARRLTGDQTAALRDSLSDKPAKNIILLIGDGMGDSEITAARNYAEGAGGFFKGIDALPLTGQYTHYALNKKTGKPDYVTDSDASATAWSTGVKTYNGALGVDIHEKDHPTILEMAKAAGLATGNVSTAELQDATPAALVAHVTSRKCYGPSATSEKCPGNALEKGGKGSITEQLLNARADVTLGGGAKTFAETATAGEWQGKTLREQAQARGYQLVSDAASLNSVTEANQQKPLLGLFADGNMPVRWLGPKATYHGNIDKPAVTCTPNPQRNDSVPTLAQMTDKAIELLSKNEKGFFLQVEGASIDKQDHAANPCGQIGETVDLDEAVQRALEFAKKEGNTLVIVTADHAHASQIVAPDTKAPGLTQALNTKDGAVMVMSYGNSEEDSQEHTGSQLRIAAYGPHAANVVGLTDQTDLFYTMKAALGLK

Tests used:
Assay type in all cases: biochemical
[1] = biological target: E. coli alkaline phosphatase, wild-type (synthetic phoA gene, plasmid pMA100) (Escherichia coli, UniProt P00634); conditions: 1 M Tris-HCl buffer pH 8.0, 1 mM MgCl2, 25°C; read-out: Km (pNPP Substrate)
[2] = biological target: E. coli alkaline phosphatase variant pMA110, Val^377 > Ala / Ser^415 > Gly (Escherichia coli, UniProt P00634, S437G/V399A); conditions: Table 1; substrate not named, e.g. p-nitrophenyl phosphate
[3] = biological target: E. coli alkaline phosphatase variant pMA111, Thr^100 > Val (Escherichia coli, UniProt P00634, T122V); conditions: 1 M Tris-HCl buffer pH 8.0, 1 mM MgCl2, 25°C; read-out: Km (pNPP Substrate)
[4] = biological target: E. coli alkaline phosphatase variant pMA112, Thr^100 > Ile (Escherichia coli, UniProt P00634, T122I); conditions: 1 M Tris-HCl buffer pH 8.0, 1 mM MgCl2, 25°C; read-out: Km (pNPP Substrate)
[5] = biological target: E. coli alkaline phosphatase variant pMA113, Lys^328 > Arg (Escherichia coli, UniProt P00634, K350R); conditions: 1 M Tris-HCl buffer pH 8.0, 1 mM MgCl2, 25°C; read-out: Km (pNPP Substrate)
[6] = biological target: E. coli alkaline phosphatase variant pMA114, Val^99 > Ala (Escherichia coli, UniProt P00634, V121A); assay: Alkaline phosphatase kinetic constants (substrate hydrolysis); conditions: Table 1; substrate not named, e.g. p-nitrophenyl phosphate
[7] = biological target: E. coli alkaline phosphatase variant pMA117, Ala^103>Asp (Escherichia coli, UniProt P00634, A125D); assay: as above; conditions: Table 1; substrate not named, e.g. p-nitrophenyl phosphate

SMILES: O=[N+]([O-])c1ccc(OP(=O)(O)O)cc1 [pNPP, p-nitrophenyl phosphate]
- Km [1]: 30.1 µM
- Km [2]: 23 µM
- Km [3]: 19.8 µM
- Km [4]: 20.2 µM
- Km [5]: 94.4 µM
- Km [6]: 22 µM
- Km [7]: 144 µM
